This passage reports Dose-effect parameter m results from US8859615B2, “Compounds, compositions and methods for reducing toxicity and treating or preventing diseases” (priority 2008, dated 2014).

The data set relates to human mammary carcinoma MX-1 cells. Put plainly: In vitro drug combination (median-effect / combination index, DRI) against MX-1 cell growth (Tables 5, 5A). The format is cell-based. The conditions noted are these: Table 5; MX-1, 72 hrs; shape of the dose-effect curve. On the procedure: The data in Tables 2X, 3A-E, 4, 5, and 6 were obtained using the cell counting kit-8 (CCK-8) tetrazolium assay in a 96-well microplate. Five to seven concentrations of each compound in triplicate were used, and the IC50 values were determined by CompuSyn software automation (Chou T C. and Martin N. ComboSyn, Inc., 2006) based on the median-effect equation and plot (Chou T C. J. Theor. Biol. 59:235-276, 1976; Chou T C. Pharmacol. Rev. 58: 621-681, 2006). […] The r value defines the correlation coefficient of the median-effect plot which signifies the conformity to the mass-action law principle (Chou T C. J. Theor. Biol. 59:235-276, 1976; Chou T C. Pharmacol. Rev. 58:621-681, 2006). These parameters were determined by CompuSyn simulation (available at http://www.combosyn.com).
Efficacy of panaxytriol in combination with Fludelone (an illustrative tubulin-binding anticancer agent) was measured according to procedures described in more detail by Chou et al. (1984) Adv. Enz. Regul., 22:27-55, Chou et al. (1994) Nat'l Cancer Inst., 86:1517-1524, and Chou (2006) Pharmacological Reviews, 68:621-681. […] DRI quantitates synergy as how many fold less of a dose is required to obtain a given level of effect for a combination of drugs versus the same effect for an individual component of the combination.

`C=C[C@@H](O)C#CC#CC[C@@H](O)[C@H](O)CCCCCCC` [panaxytriol]: the Dose-effect parameter m is 2.600.
Take `C/C(=C\c1csc(C)n1)[C@@H]1C/C=C(/C(F)(F)F)C/C=C/[C@H](C)[C@H](O)[C@@H](C)C(=O)C(C)(C)[C@@H](O)CC(=O)O1` [Fludelone]: the Dose-effect parameter m was 0.619.
